# In PMC9818519:
# For at least one entry, the source does not settle the construct or the ends of the probe. For some of these results: Weaker means in comparison with the reference protein, sequence or condition of that experiment.
# Legend:
# His-HAT1 (Homo sapiens) = experiment: ELONA; conditions: recombinant protein, protein details: 6xHis (pQE30), single-stranded DNA
# [1] = test system: His-HAT1, denatured (apta-Western) (Homo sapiens); experiment: apta-Western blot; conditions: denatured HAT1, 50 nM aptamer; recombinant protein; protein details: 6xHis (pQE30); label: biotin (ELONA Fig 4), digoxigenin (Fig 2); single-stranded DNA
# [2] = digoxigenin label, 40 nM, label: digoxigenin, letters put together from the description
# [3] = digoxigenin label, 40 nM, label: biotin (ELONA Fig 4), digoxigenin (Fig 2)
Sequence,binding result (His-HAT1 (Homo sapiens); [2]),"binding result (His-HAT1 (Homo sapiens); 40 nM aptamer, 1 mM MgCl2, label: biotin)",binding result (His-HAT1 (Homo sapiens); [3]),binding result [1]
GTTGCTCGTATTTAGGGCACAGGCATGAAGAGCCAACCCACCCGCCCGCCCCCCCCTCGACACCAGTCTTCATCCGC [apHAT63R (63R)],binds,,,
GGGCGGGGGGGCGGGGGAGGAGGTGGCGGGAATATCCATTGTCTACACCAGTCTTCATCCGC [apHAT610T],,binds more weakly,,
GCGGATGAAGACTGGTGTCGAGGGGGGGGCGGGCGGGTGGGTTGGCTCTTCATGCCTGTGCCCTAAATACGAGCAAC [apHAT63 (63F)],,,binds,binds
GCGGATGAAGACTGGTGTAGACAATGGATATTCCCGCCACCTCCTCCCCCGCCCCCCCGCCCTAAATACGAGCAAC [apHAT610F (610F)],binds,,,
GTTGCTCGTATTTAGGGCGGGGGGGCGGGGGAGGAGGTGGCGGGAATATCCATTGTCTACACCAGTCTTCATCCGC [apHAT610 (610R)],,,binds,binds
